# Measured values taken from US20150344571A1 (KANGWON NATIONAL UNIVERSITY UNIVERSITY INDUSTRY COOPERATION …, published 2015).
# Chains of the proteins cited; added tags and fusions are not shown. Lines headed by an entry give the natural chain unless they say otherwise; changes in a name come on top. A line that says so, or that is headed by a name, gives the form on record, which may keep a tag or linker. Residues count along the entry.
# UniProt P11627: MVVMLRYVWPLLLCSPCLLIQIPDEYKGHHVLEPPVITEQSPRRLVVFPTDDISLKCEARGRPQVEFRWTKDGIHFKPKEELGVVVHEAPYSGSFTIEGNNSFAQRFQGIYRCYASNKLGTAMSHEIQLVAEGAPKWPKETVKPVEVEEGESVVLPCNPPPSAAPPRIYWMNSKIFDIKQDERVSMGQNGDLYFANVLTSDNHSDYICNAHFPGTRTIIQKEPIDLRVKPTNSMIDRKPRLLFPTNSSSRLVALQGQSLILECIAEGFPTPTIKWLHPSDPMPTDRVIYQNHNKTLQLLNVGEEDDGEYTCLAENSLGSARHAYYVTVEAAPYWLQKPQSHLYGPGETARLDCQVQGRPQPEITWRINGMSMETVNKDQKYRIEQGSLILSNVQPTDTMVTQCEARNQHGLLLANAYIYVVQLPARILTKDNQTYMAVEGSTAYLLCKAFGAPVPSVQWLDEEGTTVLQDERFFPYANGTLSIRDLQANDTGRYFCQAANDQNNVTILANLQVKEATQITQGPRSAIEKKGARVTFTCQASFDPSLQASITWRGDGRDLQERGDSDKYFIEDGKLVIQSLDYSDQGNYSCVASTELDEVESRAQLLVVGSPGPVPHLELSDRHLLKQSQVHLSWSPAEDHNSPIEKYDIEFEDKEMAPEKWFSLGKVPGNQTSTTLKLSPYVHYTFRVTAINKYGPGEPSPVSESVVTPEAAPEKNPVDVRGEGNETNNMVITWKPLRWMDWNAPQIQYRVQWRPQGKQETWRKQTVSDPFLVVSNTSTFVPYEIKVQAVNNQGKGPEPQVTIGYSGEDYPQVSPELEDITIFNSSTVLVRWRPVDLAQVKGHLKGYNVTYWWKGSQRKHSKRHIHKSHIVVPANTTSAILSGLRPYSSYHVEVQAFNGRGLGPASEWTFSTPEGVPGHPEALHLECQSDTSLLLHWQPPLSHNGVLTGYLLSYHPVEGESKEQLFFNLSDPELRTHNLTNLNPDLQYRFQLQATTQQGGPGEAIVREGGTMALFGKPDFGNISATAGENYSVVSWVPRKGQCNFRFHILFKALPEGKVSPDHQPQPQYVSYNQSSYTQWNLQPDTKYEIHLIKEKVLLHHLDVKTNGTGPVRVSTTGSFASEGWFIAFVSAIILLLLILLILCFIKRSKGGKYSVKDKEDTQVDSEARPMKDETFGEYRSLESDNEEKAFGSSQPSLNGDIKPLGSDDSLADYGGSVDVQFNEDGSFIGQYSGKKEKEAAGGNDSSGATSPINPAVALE
# mouse L1CAM on cells (B16F1 melanoma cells; normal mouse tissue): residues 20-1260 of P11627
# mouse L1CAM (purified extracellular domain with S1 tag): residues 20-1123 of P11627
# UniProt P32004, residues 421-512: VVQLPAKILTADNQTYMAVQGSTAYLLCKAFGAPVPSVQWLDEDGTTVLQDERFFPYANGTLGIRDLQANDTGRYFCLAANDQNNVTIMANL
# Residue numbers refer to the chain shown, from its start. Names and notes keep the numbering of the source. These are yes or no findings as the source states them, for the method shown. Some results given as binding are weak or reduced against the parent protein; the word gives no strength.
# B1: Ab4M antibody (antibody, IgG1, V domains shown)
# VH: EVQLVESGGGVVQPGRSLRLSCAASGFTFSRFGMHWVRQAPGKGLEWVAFISNDGSNKYYADSVKGRFTISRDNSKNTLYLQMNSLRPEDTAVYYCARGRAYGSGSLFDPWGQGTLVTVSS
# VL: DIQLTQSPSSLSASVGDRVTITCRASRTISIYVNWYRQRPGKAPESLIYAASNLHSGVPSRFSGSGSGTDFTLTISSLQPEDFATYYCQQTHATRQYTFGQGTKLEIK
# notes: Ab4 with V50F and H97A in VH and V75I, G84A and D93A in VK; Whole IgG (IgG1 vector pdCMV-dhfrC-Ab4M)
# B2: Ab4 (Fab-type clone from the phage library) (Fab, V domains shown)
# VH: B1 VH with F50V, A101H
# VL: B1 VL with I75V, A84G, A93D
# B3: Ab4M scFv displayed on the yeast surface (scFv, not shown: large carriers)
# scFv: EVQLVESGGGVVQPGRSLRLSCAASGFTFSRFGMHWVRQAPGKGLEWVAFISNDGSNKYYADSVKGRFTISRDNSKNTLYLQMNSLRPEDTAVYYCARGRAYGSGSLFDPWGQGTLVTVSSGGGGSGGGGSGGGGSDIQLTQSPSSLSASVGDRVTITCRASRTISIYVNWYRQRPGKAPESLIYAASNLHSGVPSRFSGSGSGTDFTLTISSLQPEDFATYYCQQTHATRQYTFGQGTKLEIK
# B4: V50A mutant of Ab4 VH (antibody, V domains shown)
# VH: B1 VH with F50A, A101H
# VL: B1 VL with I75V, A84G, A93D
# B5: V50F mutant of Ab4 (VH V50F with the V75I/G84A light chain) (antibody, V domains shown)
# VH: B1 VH with A101H
# VL: B1 VL with A93D
# B6: D93A mutant of Ab4 antibody (antibody, IgG1, V domains shown)
# VH: B1 VH with F50V, A101H
# VL: B1 VL with I75V, A84G
# notes: Whole IgG made in the pdCMV-dhfrC-Ab4 vector (IgG1); also called VK D93A mutant
# B7: H97A mutant of Ab4 antibody (antibody, IgG1, name in Kabat numbering, V domains shown)
# VH: B1 VH with F50V
# VL: B1 VL with I75V, A84G, A93D
# notes: Whole IgG made in the pdCMV-dhfrC-Ab4 vector (IgG1); also called VH H97A mutant of Ab4
# B8: Ab4M-18 scFv displayed on the yeast surface (scFv, not shown: large carriers)
# scFv: B3 scFv with T227S, H228I, A229G, T230R, R231G, Q232V, Y233V
# B9: Ab417 antibody (antibody, V domains shown)
# VH: B1 VH
# VL: B1 VL with T91S, H92I, A93G, T94R, R95G, Q96V, Y97V
# notes: Whole IgG expressed from pdCMV-dhfrC-Ab417; also called IgG form of Ab4M-18 (codon-optimised)
# B10: R31A (antibody, V domains shown)
# VH: B1 VH with R31A, F50V, A101H
# VL: B1 VL with I75V, A84G, A93D
# B11: D101A (antibody, V domains shown)
# VH: B1 VH with F50V, A101H, D109A
# VL: B1 VL with I75V, A84G, A93D
# B12: D53A (antibody, V domains shown)
# VH: B1 VH with F50V, D54A, A101H
# VL: B1 VL with I75V, A84G, A93D
# B13: Q95aA (antibody, V domains shown)
# VH: B1 VH with F50V, A101H
# VL: B1 VL with I75V, A84G, A93D, Q96A
# B14: Q89A (antibody, V domains shown)
# VH: B1 VH with F50V, A101H
# VL: B1 VL with I75V, A84G, Q89A, A93D
# B15: H92A (antibody, V domains shown)
# VH: B1 VH with F50V, A101H
# VL: B1 VL with I75V, A84G, H92A, A93D
# B16: Y58A (antibody, V domains shown)
# VH: B1 VH with F50V, Y59A, A101H
# VL: B1 VL with I75V, A84G, A93D
# B17: N52aA (antibody, V domains shown)
# VH: B1 VH with F50V, N53A, A101H
# VL: B1 VL with I75V, A84G, A93D
# B18: K57A (antibody, V domains shown)
# VH: B1 VH with F50V, K58A, A101H
# VL: B1 VL with I75V, A84G, A93D
# B19: R95A (antibody, V domains shown)
# VH: B1 VH with F50V, A101H
# VL: B1 VL with I75V, A84G, A93D, R95A
# B20: S52A (antibody, V domains shown)
# VH: B1 VH with F50V, S52A, A101H
# VL: B1 VL with I75V, A84G, A93D
# B21: Q90A (antibody, V domains shown)
# VH: B1 VH with F50V, A101H
# VL: B1 VL with I75V, A84G, Q90A, A93D
# B22: I51A (antibody, V domains shown)
# VH: B1 VH with F50V, I51A, A101H
# VL: B1 VL with I75V, A84G, A93D
# B23: T97A (antibody, V domains shown)
# VH: B1 VH with F50V, A101H
# VL: B1 VL with I75V, A84G, A93D, T98A
# B24: P102A (antibody, V domains shown)
# VH: B1 VH with F50V, A101H, P110A
# VL: B1 VL with I75V, A84G, A93D
# B25: M34A (antibody, V domains shown)
# VH: B1 VH with M34A, F50V, A101H
# VL: B1 VL with I75V, A84G, A93D
# B26: T91A (antibody, V domains shown)
# VH: B1 VH with F50V, A101H
# VL: B1 VL with I75V, A84G, T91A, A93D
# B27: G54A (antibody, V domains shown)
# VH: B1 VH with F50V, G55A, A101H
# VL: B1 VL with I75V, A84G, A93D
# B28: T94A (antibody, V domains shown)
# VH: B1 VH with F50V, A101H
# VL: B1 VL with I75V, A84G, A93D, T94A
# B29: L100cA (antibody, V domains shown)
# VH: B1 VH with F50V, A101H, L107A
# VL: B1 VL with I75V, A84G, A93D
# B30: S55A (antibody, V domains shown)
# VH: B1 VH with F50V, S56A, A101H
# VL: B1 VL with I75V, A84G, A93D
# B31: F100dA (antibody, V domains shown)
# VH: B1 VH with F50V, A101H, F108A
# VL: B1 VL with I75V, A84G, A93D
# B32: N56A (antibody, V domains shown)
# VH: B1 VH with F50V, N57A, A101H
# VL: B1 VL with I75V, A84G, A93D
# B33: H35A (antibody, V domains shown)
# VH: B1 VH with H35A, F50V, A101H
# VL: B1 VL with I75V, A84G, A93D
# B34: G33A (antibody, V domains shown)
# VH: B1 VH with G33A, F50V, A101H
# VL: B1 VL with I75V, A84G, A93D
# B35: Y96A (antibody, V domains shown)
# VH: B1 VH with F50V, A101H
# VL: B1 VL with I75V, A84G, A93D, Y97A
# B36: F32A (antibody, V domains shown)
# VH: B1 VH with F32A, F50V, A101H
# VL: B1 VL with I75V, A84G, A93D
# Target: mouse L1CAM on cells (B16F1 melanoma cells; normal mouse tissue) (mouse) (UniProt P11627)
# Assay: flow cytometry on B16F1 cells
row,Binder,binding
1,B1,binds

# Target: mouse L1CAM (purified extracellular domain with S1 tag) (mouse) (UniProt P11627)
# Assay: indirect ELISA of the 6 clones
row,Binder,binding
1,B2,binds

# Target: Ig5 domain-hFc fusion protein of human L1CAM (human) (UniProt P32004)
# Assay: FACS of yeast-displayed scFv with Ig5-hFc
row,Binder,binding
1,B3,binds

# Target: mouse L1CAM (purified extracellular domain with S1 tag) (mouse) (UniProt P11627)
# Assay: indirect ELISA of clone culture supernatants
row,Binder,binding
1,B2,binds

# Target: mouse L1CAM on cells (B16F1 melanoma cells; normal mouse tissue) (mouse) (UniProt P11627)
# Assay: flow cytometry on B16F1 cells (figure legend)
row,Binder,binding
1,B1,binds

# Target: mouse L1CAM (purified extracellular domain with S1 tag) (mouse) (UniProt P11627)
# Assay: indirect ELISA on coated antigen, culture supernatant
row,Binder,binding
1,B4,binds
2,B5,binds
3,B6,binds
4,B7,binds

# Target: Ig5 domain-hFc fusion protein of human L1CAM (human) (UniProt P32004)
# Assay: FACS of yeast-displayed scFv with Ig5-hFc at 1×10^-8 M
row,Binder,binding
1,B8,binds

# Target: mouse L1CAM on cells (B16F1 melanoma cells; normal mouse tissue) (mouse) (UniProt P11627)
# Assay: flow cytometry on L1CAM-positive and L1CAM-negative cells
row,Binder,binding
1,B9,binds

# Target: mouse L1CAM on cells (B16F1 melanoma cells; normal mouse tissue) (mouse) (UniProt P11627)
# Assay: flow cytometry on B16F1 cells, anti-human IgG(Fc)-FITC
row,Binder,binding
1,B9,binds

# Target: Ig5 domain-hFc fusion protein of human L1CAM (human) (UniProt P32004)
# Assay: FACS of yeast-displayed scFv with Ig5-hFc at 1×10^-5 to 1×10^-8 M
row,Binder,binding
1,B3,binds

# Target: mouse L1CAM on cells (B16F1 melanoma cells; normal mouse tissue) (mouse) (UniProt P11627)
# Assay: immunohistochemistry on frozen sections of normal mouse tissue, 2.5 µg/ml antibody
row,Binder,binding
1,B9,binds

# Target: mouse L1CAM (purified extracellular domain with S1 tag) (mouse) (UniProt P11627)
# Assay: indirect ELISA on coated mouse L1CAM, mutant IgG in culture supernatant, relative to Ab4
row,Binder,binding
1,B10,binds
2,B11,binds
3,B12,binds
4,B13,binds
5,B14,binds
6,B15,binds
7,B16,binds
8,B17,binds
9,B18,binds
10,B19,binds
11,B20,binds
12,B21,binds
13,B22,binds
14,B23,binds
15,B24,binds
16,B25,binds
17,B26,binds
18,B27,binds
19,B28,binds
20,B29,binds
21,B30,binds
22,B31,binds
23,B32,binds
24,B33,binds
25,B34,binds
26,B35,binds
27,B36,binds
